Some of the results follow.
How the values were obtained:
Assay in all cases: log2 fold change, soluble protein after heating vs DMSO (PISA); higher = thermal stabilisation; K562 lysate, 10 uM; active = over 0.2 and 3.5 SD of the protein, either way, in both replicates (recomputed)
alvocidib = compound: CN1CC[C@H](c2c(O)cc(O)c3c(=O)cc(-c4ccccc4Cl)oc23)[C@H](O)C1 [alvocidib]
Procedure, shortened: (§1)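 Following dounce homogenisation of K562 pellets in PBS pH 7.4 with 1 mM MgCl2, crude extract at 1 mg/mL protein was incubated for 30 min with 10 μM compound. Aliquots were then heated for 3 min over 48°C-58°C and pooled, NP-40 was added to 0.5% at 4°C, and soluble protein was recovered as the supernatant at 21,000xg for 90 min. Channel-sum-equalised TMTpro 16plex LC-MS/MS quantified this protein. Each value, from duplicates, is a log-two fold change in thermal stability relative to solvent controls.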

By UniProt entry, the sequences of proteins in these tests, tags left out. Where a name states a change or a piece, a line headed by the entry shows the natural chain unless it says otherwise.
UniProt Q9NPJ6: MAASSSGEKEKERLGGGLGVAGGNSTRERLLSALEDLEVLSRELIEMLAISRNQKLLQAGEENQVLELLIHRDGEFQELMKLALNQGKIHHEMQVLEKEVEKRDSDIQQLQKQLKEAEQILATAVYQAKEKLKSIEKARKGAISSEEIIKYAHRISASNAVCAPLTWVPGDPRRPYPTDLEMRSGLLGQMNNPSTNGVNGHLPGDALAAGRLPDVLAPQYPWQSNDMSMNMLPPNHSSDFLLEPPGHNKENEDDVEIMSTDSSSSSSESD
UniProt P40926: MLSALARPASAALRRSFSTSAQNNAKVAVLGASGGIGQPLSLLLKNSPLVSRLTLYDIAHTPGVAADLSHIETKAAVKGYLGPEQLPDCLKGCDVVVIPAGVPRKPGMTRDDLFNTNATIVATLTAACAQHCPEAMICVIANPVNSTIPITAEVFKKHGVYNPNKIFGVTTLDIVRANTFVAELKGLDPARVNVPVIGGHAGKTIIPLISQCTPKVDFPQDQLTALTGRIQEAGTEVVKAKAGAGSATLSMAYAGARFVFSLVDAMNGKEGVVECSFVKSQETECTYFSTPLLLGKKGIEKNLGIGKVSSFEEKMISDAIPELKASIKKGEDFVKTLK
UniProt Q6ZWT7: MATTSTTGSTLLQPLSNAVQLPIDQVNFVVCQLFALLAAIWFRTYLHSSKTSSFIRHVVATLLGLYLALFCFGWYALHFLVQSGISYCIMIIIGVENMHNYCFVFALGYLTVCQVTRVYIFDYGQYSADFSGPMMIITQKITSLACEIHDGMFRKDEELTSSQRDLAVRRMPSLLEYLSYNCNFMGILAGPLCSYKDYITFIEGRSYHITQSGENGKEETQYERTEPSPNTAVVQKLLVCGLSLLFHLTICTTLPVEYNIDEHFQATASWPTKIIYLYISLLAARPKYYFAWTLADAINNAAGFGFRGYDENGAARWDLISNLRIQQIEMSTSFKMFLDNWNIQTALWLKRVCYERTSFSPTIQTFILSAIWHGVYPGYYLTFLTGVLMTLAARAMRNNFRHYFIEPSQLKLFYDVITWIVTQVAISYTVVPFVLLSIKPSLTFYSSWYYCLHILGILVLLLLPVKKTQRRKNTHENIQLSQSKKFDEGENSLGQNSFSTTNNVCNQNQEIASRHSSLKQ
UniProt Q6P2C8: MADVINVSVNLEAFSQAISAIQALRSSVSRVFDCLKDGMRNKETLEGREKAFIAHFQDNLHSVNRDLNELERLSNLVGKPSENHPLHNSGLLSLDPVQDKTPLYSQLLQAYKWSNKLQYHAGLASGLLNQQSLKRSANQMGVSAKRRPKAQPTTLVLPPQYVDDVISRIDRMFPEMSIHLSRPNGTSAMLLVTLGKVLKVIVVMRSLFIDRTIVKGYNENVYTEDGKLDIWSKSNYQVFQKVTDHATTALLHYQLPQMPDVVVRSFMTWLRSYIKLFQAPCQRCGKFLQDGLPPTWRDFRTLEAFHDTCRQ
UniProt Q14814: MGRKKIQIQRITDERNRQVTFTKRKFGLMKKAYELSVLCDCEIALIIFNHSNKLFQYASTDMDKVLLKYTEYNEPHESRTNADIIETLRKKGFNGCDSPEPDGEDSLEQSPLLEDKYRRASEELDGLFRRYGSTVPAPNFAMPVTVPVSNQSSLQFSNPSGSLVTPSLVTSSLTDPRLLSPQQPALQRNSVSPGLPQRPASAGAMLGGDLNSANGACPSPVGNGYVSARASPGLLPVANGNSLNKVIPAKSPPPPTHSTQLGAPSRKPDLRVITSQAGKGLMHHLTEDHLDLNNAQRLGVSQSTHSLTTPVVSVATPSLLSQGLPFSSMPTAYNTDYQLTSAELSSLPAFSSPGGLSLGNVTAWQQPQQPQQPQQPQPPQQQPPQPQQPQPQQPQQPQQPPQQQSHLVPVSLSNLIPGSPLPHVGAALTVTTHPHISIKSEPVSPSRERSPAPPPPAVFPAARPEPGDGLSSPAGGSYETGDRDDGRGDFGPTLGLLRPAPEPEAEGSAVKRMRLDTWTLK
UniProt Q6N075: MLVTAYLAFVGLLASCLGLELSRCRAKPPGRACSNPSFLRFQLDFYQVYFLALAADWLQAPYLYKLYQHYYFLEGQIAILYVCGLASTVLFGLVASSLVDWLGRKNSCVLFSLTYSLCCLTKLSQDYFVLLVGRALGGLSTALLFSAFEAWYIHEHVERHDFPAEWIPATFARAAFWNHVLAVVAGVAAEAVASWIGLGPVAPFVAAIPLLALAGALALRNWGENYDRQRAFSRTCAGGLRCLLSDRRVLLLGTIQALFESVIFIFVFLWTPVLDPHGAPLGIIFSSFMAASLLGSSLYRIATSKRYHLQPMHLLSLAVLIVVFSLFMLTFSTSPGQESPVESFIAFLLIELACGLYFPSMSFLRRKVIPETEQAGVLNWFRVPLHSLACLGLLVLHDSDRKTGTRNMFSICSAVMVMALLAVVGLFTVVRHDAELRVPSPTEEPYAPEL
UniProt Q9H944: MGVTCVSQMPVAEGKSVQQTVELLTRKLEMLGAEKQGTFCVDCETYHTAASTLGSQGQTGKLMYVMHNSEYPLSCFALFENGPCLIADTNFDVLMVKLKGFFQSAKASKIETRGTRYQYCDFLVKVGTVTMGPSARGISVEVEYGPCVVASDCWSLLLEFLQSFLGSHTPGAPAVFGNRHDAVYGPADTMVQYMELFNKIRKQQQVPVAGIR
UniProt Q8IVS2: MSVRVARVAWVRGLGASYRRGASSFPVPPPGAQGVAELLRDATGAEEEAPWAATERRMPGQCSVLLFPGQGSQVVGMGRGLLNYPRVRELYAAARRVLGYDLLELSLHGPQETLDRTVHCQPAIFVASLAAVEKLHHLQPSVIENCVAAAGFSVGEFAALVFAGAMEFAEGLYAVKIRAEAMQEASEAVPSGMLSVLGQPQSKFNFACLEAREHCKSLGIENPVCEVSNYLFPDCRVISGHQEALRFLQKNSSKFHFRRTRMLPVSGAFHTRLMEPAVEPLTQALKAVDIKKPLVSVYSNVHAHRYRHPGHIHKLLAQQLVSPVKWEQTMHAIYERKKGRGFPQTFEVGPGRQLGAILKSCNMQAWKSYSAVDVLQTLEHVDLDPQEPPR
UniProt Q96N66: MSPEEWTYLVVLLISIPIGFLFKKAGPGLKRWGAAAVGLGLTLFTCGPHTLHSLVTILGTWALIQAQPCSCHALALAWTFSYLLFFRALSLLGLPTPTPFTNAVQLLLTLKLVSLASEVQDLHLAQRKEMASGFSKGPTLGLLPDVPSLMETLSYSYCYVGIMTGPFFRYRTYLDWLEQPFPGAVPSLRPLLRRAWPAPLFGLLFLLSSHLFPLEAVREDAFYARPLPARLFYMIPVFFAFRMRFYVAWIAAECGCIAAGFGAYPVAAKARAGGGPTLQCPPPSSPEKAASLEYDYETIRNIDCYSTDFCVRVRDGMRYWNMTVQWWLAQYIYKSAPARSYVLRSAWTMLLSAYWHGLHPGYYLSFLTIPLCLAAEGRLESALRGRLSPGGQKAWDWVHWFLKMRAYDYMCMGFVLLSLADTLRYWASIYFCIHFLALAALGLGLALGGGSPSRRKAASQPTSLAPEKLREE
UniProt P33992: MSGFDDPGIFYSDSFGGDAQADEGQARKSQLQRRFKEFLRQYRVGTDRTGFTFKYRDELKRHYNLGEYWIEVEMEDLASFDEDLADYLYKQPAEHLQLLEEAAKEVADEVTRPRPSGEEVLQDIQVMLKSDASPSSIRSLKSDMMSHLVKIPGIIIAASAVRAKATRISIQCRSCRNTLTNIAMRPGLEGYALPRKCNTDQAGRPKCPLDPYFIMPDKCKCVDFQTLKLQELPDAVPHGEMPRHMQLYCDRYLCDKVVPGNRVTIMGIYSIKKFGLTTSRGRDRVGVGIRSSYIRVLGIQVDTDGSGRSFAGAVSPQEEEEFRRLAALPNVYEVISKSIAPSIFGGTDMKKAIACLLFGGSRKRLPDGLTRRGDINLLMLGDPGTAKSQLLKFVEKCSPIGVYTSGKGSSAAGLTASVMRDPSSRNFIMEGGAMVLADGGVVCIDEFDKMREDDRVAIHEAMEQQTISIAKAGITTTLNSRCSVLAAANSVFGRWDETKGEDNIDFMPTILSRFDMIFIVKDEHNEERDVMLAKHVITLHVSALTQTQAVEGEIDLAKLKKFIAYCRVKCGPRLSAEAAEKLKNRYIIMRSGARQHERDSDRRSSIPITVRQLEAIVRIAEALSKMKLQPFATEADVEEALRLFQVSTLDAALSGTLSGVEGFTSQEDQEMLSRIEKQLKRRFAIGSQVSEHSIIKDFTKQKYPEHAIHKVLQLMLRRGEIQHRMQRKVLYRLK
UniProt Q16798: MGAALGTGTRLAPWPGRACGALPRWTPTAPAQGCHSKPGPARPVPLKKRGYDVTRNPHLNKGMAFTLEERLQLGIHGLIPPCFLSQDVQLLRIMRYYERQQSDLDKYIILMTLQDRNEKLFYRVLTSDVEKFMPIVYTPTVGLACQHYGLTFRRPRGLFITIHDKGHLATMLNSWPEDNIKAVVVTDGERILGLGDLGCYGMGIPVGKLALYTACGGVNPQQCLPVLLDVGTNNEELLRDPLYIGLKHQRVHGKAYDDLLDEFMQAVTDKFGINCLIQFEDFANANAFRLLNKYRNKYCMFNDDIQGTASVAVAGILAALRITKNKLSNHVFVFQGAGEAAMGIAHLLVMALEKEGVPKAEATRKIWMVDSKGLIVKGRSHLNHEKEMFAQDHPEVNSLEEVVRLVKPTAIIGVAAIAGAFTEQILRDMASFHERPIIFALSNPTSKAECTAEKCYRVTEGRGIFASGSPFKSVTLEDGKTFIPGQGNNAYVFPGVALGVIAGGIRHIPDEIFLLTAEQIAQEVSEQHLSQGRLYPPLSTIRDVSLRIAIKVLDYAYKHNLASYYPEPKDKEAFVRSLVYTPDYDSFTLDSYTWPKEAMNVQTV
UniProt Q06413, whole entry, looked up: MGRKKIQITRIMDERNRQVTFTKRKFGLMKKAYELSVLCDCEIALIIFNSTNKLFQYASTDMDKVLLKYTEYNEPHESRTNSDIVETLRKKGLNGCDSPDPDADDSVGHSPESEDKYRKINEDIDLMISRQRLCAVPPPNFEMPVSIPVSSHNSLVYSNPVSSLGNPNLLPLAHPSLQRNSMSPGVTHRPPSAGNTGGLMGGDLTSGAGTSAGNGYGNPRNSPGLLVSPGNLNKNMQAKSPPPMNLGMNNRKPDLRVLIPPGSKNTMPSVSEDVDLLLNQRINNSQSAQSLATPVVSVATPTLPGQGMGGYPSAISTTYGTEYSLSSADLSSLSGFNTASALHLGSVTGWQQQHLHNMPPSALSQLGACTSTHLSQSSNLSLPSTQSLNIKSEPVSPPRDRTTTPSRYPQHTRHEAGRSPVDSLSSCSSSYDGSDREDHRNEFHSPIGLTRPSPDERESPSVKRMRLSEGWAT
UniProt Q14703: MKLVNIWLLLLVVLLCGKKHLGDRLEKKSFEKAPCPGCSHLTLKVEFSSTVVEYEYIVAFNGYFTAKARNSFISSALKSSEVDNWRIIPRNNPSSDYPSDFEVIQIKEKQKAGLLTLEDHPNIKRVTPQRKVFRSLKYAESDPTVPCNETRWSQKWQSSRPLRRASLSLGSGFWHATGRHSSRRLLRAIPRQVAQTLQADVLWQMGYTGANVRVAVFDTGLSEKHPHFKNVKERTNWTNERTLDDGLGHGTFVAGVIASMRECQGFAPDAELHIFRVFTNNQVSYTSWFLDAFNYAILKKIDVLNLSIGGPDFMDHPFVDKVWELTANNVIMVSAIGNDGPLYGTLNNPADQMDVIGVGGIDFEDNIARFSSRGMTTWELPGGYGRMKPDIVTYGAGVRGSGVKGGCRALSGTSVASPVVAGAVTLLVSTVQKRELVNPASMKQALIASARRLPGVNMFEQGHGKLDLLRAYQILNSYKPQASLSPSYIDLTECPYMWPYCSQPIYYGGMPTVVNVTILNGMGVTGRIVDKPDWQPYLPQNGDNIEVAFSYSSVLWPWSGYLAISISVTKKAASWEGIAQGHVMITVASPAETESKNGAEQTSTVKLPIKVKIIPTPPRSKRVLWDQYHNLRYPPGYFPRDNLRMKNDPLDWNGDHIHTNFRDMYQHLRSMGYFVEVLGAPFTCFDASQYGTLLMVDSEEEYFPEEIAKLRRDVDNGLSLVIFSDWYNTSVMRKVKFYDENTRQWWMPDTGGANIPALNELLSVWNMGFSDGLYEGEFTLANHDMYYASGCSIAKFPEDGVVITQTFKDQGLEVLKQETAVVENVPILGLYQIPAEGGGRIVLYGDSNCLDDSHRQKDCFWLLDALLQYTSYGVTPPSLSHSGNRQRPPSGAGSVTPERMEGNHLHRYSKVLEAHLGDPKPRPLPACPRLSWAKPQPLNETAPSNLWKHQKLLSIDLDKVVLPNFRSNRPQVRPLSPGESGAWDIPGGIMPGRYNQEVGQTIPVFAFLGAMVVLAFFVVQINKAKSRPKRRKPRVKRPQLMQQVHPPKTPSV
UniProt Q9ULC4: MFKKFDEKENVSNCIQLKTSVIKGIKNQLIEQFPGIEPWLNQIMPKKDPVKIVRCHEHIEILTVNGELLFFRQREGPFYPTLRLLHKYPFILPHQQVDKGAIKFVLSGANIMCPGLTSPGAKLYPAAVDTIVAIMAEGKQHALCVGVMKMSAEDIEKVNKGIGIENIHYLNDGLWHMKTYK

Tubastatin A = compound: CN1CCc2c(c3ccccc3n2Cc2ccc(C(=O)NO)cc2)C1 [Tubastatin A]
Procedure, shortened: as §1

[1] = compound: CNC(=O)C1=CC=CC=C1NC2=NC(=NC=C2Cl)NC3=C(C=C(C=C3)N4CCOCC4)OC
Procedure, shortened: as §1

defactinib = compound: CNC(=O)c1ccc(Nc2ncc(C(F)(F)F)c(NCc3nccnc3N(C)S(C)(=O)=O)n2)cc1 [defactinib]
Procedure, shortened: as §1

[2] = compound: CNc1nc(-c2ccc3c(N)n[nH]c3c2)cc(N2C[C@@H](C(=O)NC3CCCCC3)CC[C@H]2C)n1
Procedure, shortened: as §1

encorafenib = compound: COC(=O)N[C@@H](C)CNc1nccc(-c2cn(C(C)C)nc2-c2cc(Cl)cc(NS(C)(=O)=O)c2F)n1 [encorafenib]
Procedure, shortened: as §1

[3] = compound: COC(=O)[C@H](CCSC)NC(=O)C1=C(C=C(C=C1)NC[C@H](CS)N)C2=CC=CC=C2
Procedure, shortened: as §1

alisertib = compound: COc1cc(Nc2ncc3c(n2)-c2ccc(Cl)cc2C(c2c(F)cccc2OC)=NC3)ccc1C(=O)O [alisertib]
Procedure, shortened: as §1

[4] = compound: COc1cc2nc(-c3cc(F)ccc3O)nc(N[C@@H]3CNC[C@H]3C(C)(C)O)c2cc1OC
Procedure, shortened: as §1

gefitinib = compound: COc1cc2ncnc(Nc3ccc(F)c(Cl)c3)c2cc1OCCCN1CCOCC1 [gefitinib]
Procedure, shortened: as §1

Measured: log2 fold change

MED4 (UniProt Q9NPJ6)
inactive: alvocidib -0.001 | Tubastatin A 0.03 | [1] 0.002 | defactinib 0.028 | [2] -0.015 | encorafenib 0.006 | [3] -0.076 | alisertib 0.031 | [4] 0.014 | gefitinib -0.022

METTL2A (UniProt Q96IZ6)
inactive: alvocidib 0.023 | Tubastatin A -0.079 | [1] 0.058 | defactinib 0.019 | [2] -0.028 | encorafenib -0.007 | [3] 0.055 | alisertib -0.057 | [4] 0.029 | gefitinib 0.04

MDH2 (UniProt P40926)
inactive: alvocidib 0.021 | Tubastatin A 0.02 | [1] -0.019 | defactinib -0.009 | [2] -0.016 | encorafenib -0.029 | [3] -0.021 | alisertib 0.012 | [4] -0.035 | gefitinib 0.005

MBOAT2 (UniProt Q6ZWT7)
inactive: alvocidib -0.024 | Tubastatin A 0 | [1] 0.079 | defactinib 0.002 | [2] -0.025 | encorafenib 0.156 | [3] -0.073 | alisertib -0.003 | [4] 0.034 | gefitinib 0.064

MCM6 (UniProt Q14566)
inactive: alvocidib -0.022 | Tubastatin A -0.015 | [1] 0.036 | defactinib 0.011 | [2] -0.029 | encorafenib 0.015 | [3] 0.095 | alisertib 0.036 | [4] -0.005 | gefitinib 0.015

MCCC1 (UniProt Q96RQ3)
inactive: alvocidib 0.063 | Tubastatin A -0.036 | [1] 0.003 | defactinib -0.002 | [2] -0.025 | encorafenib 0.012 | [3] -0.057 | alisertib 0 | [4] 0.001 | gefitinib 0.017

MFF isoform 2 (UniProt Q9GZY8)
inactive: alvocidib -0.046 | Tubastatin A -0.038 | [1] -0.052 | defactinib 0.027 | [2] 0.024 | encorafenib 0.068 | [3] -0.113 | alisertib 0.042 | [4] -0.075 | gefitinib 0.048

MED27 (UniProt Q6P2C8)
inactive: alvocidib -0.005 | Tubastatin A -0.064 | [1] 0.004 | defactinib 0.014 | [2] -0.005 | encorafenib 0.071 | [3] 0.032 | alisertib -0.011 | [4] 0.051 | gefitinib -0.063

MEF2D (UniProt Q14814)
inactive: alvocidib -0.07 | Tubastatin A 0.029 | [1] -0.01 | defactinib 0.037 | [2] 0.05 | encorafenib 0.074 | [3] -0.138 | alisertib 0.136 | [4] 0.007 | gefitinib -0.019

MFSD5 isoform 2 (UniProt Q6N075)
inactive: alvocidib -0.04 | Tubastatin A 0.019 | [1] 0.061 | defactinib 0.032 | [2] 0.031 | encorafenib 0.07 | [3] -0.065 | alisertib -0.077 | [4] -0.348 | gefitinib -0.05

METAP1D (UniProt Q6UB28)
inactive: alvocidib -0.016 | Tubastatin A 0.009 | [1] -0.08 | defactinib -0.035 | [2] 0.081 | encorafenib 0.015 | [3] -0.065 | alisertib 0.008 | [4] 0.076 | gefitinib 0.12

MEX3D isoform 3 (UniProt Q86XN8)
inactive: alvocidib -0.023 | Tubastatin A -0.163 | [1] 0.037 | defactinib 0.041 | [2] -0.024 | encorafenib -0.007 | [3] -0.025 | alisertib -0.001 | [4] -0.013 | gefitinib -0.04

METAP1 (UniProt P53582)
inactive: alvocidib 0.012 | Tubastatin A 0.002 | [1] -0.013 | defactinib -0.011 | [2] -0.015 | encorafenib -0.024 | [3] -0.179 | alisertib -0.012 | [4] -0.003 | gefitinib 0.031

MED20 (UniProt Q9H944)
inactive: alvocidib -0.021 | Tubastatin A 0.005 | [1] 0.035 | defactinib 0.03 | [2] 0.003 | encorafenib 0.008 | [3] 0.276 | alisertib -0.012 | [4] -0.037 | gefitinib -0.039

METTL3 (UniProt Q86U44)
inactive: alvocidib -0.014 | Tubastatin A -0.009 | [1] 0.036 | defactinib -0.015 | [2] -0.007 | encorafenib 0.011 | [3] 0.014 | alisertib -0.024 | [4] 0.013 | gefitinib 0.023

MCAT (UniProt Q8IVS2)
inactive: alvocidib 0.036 | Tubastatin A 0.004 | [1] 0.227 | defactinib 0.037 | [2] -0.034 | encorafenib 0.035 | [3] 0.019 | alisertib -0.029 | [4] 0.015 | gefitinib 0.07

MED16 (UniProt Q9Y2X0)
inactive: alvocidib 0.01 | Tubastatin A -0.093 | [1] 0.02 | defactinib -0.014 | [2] 0.004 | encorafenib -0.011 | [3] 0.038 | alisertib -0.015 | [4] -0.004 | gefitinib 0.019

MCUR1 (UniProt Q96AQ8)
inactive: alvocidib 0.012 | Tubastatin A 0.172 | [1] -0.03 | defactinib -0.022 | [2] 0.04 | encorafenib -0.005 | [3] 0.026 | alisertib 0.063 | [4] 0.094 | gefitinib 0.003

MBOAT7 (UniProt Q96N66)
inactive: alvocidib -0.037 | Tubastatin A 0.066 | [1] 0.068 | defactinib -0.016 | [2] 0.027 | encorafenib 0.013 | [3] 0.032 | alisertib 0.022 | [4] -0.004 | gefitinib -0.037

MCM5 (UniProt P33992)
inactive: alvocidib -0.011 | Tubastatin A 0.015 | [1] -0.001 | defactinib 0.008 | [2] 0.029 | encorafenib -0.003 | [3] 0.098 | alisertib 0.005 | [4] 0.002 | gefitinib -0.011

MFAP3 (UniProt P55082)
inactive: alvocidib 0.041 | Tubastatin A 0.005 | [1] -0.138 | defactinib 0.021 | [2] -0.181

MCCC2 (UniProt Q9HCC0)
inactive: alvocidib 0.008 | Tubastatin A 0.008 | [1] -0.101 | defactinib 0.007 | [2] -0.022 | encorafenib -0.002 | [3] -0.002 | alisertib -0.007 | [4] -0.007 | gefitinib -0.016

ME3 (UniProt Q16798)
inactive: alvocidib -0.12 | Tubastatin A -0.06 | [1] -0.105 | defactinib -0.037 | [2] -0.222 | encorafenib 0.005 | [3] 0.088 | alisertib -0.123 | [4] 0.103 | gefitinib 0.023

MED15 (UniProt Q96RN5)
inactive: alvocidib 0.009 | Tubastatin A -0.033 | [1] 0.017 | defactinib 0.03 | [2] -0.004 | encorafenib -0.003 | [3] -0.002 | alisertib 0.009 | [4] -0.05 | gefitinib 0

MEAF6 isoform 3 (UniProt Q9HAF1)
inactive: alvocidib -0.077 | Tubastatin A 0.009 | [1] 0.028 | defactinib -0.028 | [2] 0.044 | encorafenib 0.018 | [3] 0.044 | alisertib 0 | [4] -0.014 | gefitinib 0.135

MEAK7 (UniProt Q6P9B6)
inactive: alvocidib -0.019 | Tubastatin A 0.027 | [1] -0.025 | defactinib 0.008 | [2] 0.019 | encorafenib 0.044 | [3] 0.042 | alisertib 0.044 | [4] -0.012 | gefitinib -0.052

MEF2C isoform 5 (UniProt Q06413)
inactive: alvocidib -0.021 | Tubastatin A 0.008 | [1] -0.003 | defactinib -0.007 | [2] -0.079 | encorafenib 0.096 | [3] -0.016 | alisertib 0.015 | [4] -0.039 | gefitinib -0.016

MEF2A (UniProt Q02078)
inactive: alvocidib -0.098 | Tubastatin A -0.045 | [1] -0.022 | defactinib -0.014 | [2] -0.011 | encorafenib 0.071 | [3] 0.146 | alisertib 0.088 | [4] 0.06 | gefitinib 0.022

MBTPS1 (UniProt Q14703)
inactive: alvocidib 0.096 | Tubastatin A -0.058 | [1] 0.013 | defactinib -0.002 | [2] 0.029 | encorafenib 0.048 | [3] -0.036

MEGF9 (UniProt Q9H1U4)
inactive: alvocidib -0.107 | Tubastatin A -0.003 | [1] -0.055 | defactinib 0.031 | [2] 0.078 | encorafenib 0.097 | [3] -0.064

MCTS1 isoform 3 (UniProt Q9ULC4)
inactive: alvocidib 0.012 | Tubastatin A 0.051 | [1] -0.012 | defactinib -0.004 | [2] -0.002 | encorafenib -0.021 | [3] -0.04 | alisertib 0 | [4] -0.03 | gefitinib -0.005

— the supplement of paper PMC10849652
